Source: PubChem BioAssay AID1259425 (University of Nebraska Medical Center, 2018)
Purpose: 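Find knockdowns that reproduce the gene expression pattern seen when KSR1 is lost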 (primary screen). Cell system: HCT116 human colon cancer cells. Knock-down reagent: siRNA pool against human genes, 50 nM siRNA. Measurement: 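mRNA of six signature genes measured together by branched-DNA assay after 50 nM siRNA pool, blank removed, divided by geometric mean of two housekeeping genes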. Direction: BNIP3L mRNA: higher = more BNIP3L transcript after knockdown; NDRG1 mRNA: higher = more NDRG1 transcript after knockdown; BNIP3 mRNA: higher = more BNIP3 transcript after knockdown; ALDOC mRNA: higher = more ALDOC transcript after knockdown; ACSL5 mRNA: higher = more ACSL5 transcript after knockdown.
The whole screen tested about 14,000 reagents; below is a random part of them. The record does not give: the time to read-out.

Gene | BNIP3L mRNA, set 1 | NDRG1 mRNA, set 1 | BNIP3 mRNA, set 1 | ALDOC mRNA, set 1 | ACSL5 mRNA, set 1
HCFC1R1 (host cell factor C1 regulator 1) | 0.293 | 0.603 | 0.265 | 0.0466 | 0.111
ESS2 (ess-2 spliceosome associated protein) | 0.237 | 0.31 | 0.454 | 0.0682 | 0.431
UHRF2 (ubiquitin like with PHD and ring finger domains 2) | 0.0455 | 0.226 | 0.25 | 0.0138 | 0.218
XAB2 (XPA binding protein 2) | 0.356 | 0.349 | 0.445 | 0.337 | 0.588
CYBC1 (cytochrome b-245 chaperone 1) | 0.186 | 0.463 | 0.393 | 0.0278 | 0.219
ERVMER34-1 (endogenous retrovirus group MER34 member 1, envelope) | 0.144 | 0.416 | 0.464 | 0.0597 | 0.409
TCL1A (TCL1 family AKT coactivator A) | 0.139 | 1.29 | 0.635 | 0.0605 | 0.332
PGS1 (phosphatidylglycerophosphate synthase 1) | 0.208 | 0.235 | 0.474 | 0.0315 | 0.226
SEC14L2 (SEC14 like lipid binding 2) | 0.0245 | 0.183 | 0.166 | 0.0206 | 0.199
ANXA2P3 (annexin A2 pseudogene 3) | 0.101 | 0.215 | 0.426 | 0.019 | 0.149
CHMP2A (charged multivesicular body protein 2A) | 0.24 | 0.73 | 0.551 | 0.133 | 0.143
ITGAM (integrin subunit alpha M) | 0.067 | 0.685 | 0.263 | 0.0497 | 0.165
ALOXE3 (arachidonate epidermal lipoxygenase 3) | 0.147 | 0.397 | 0.475 | 0.0401 | 0.209
UCP2 (uncoupling protein 2) | 0.173 | 0.199 | 0.512 | 0.0412 | 0.147
SRSF4 (serine and arginine rich splicing factor 4) | 0.113 | 0.0956 | 0.235 | 0.0137 | 0.171
MAGIX (MAGI family member, X-linked) | 0.0997 | 0.173 | 0.395 | 0.0213 | 0.264
FES (FES proto-oncogene, tyrosine kinase) | 0.0984 | 0.316 | 0.411 | 0.00461 | 0.202
SPTLC1 (serine palmitoyltransferase long chain base subunit 1) | 0.0739 | 0.669 | 0.312 | 0.0248 | 0.239
ZNF33B (zinc finger protein 33B) | 0.0736 | 0.183 | 0.221 | 0.0198 | 0.142
TRPC4 | 0.0948 | 0.11 | 0.396 | 0.0243 | 0.152
CACNA1C (calcium voltage-gated channel subunit alpha1 C) | 0.111 | 0.263 | 0.408 | 0.0534 | 0.114
PFKFB2 (6-phosphofructo-2-kinase/fructose-2,6-biphosphatase 2) | 0.214 | 0.513 | 0.265 | 0.0071 | 0.395
TUT7 (terminal uridylyl transferase 7) | 0.133 | 0.314 | 0.365 | 0.0648 | 0.297
DLK2 (delta like non-canonical Notch ligand 2) | 0.181 | 0.821 | 0.499 | 0.0999 | 0.442
USHBP1 (USH1 protein network component harmonin binding protein 1) | 0.269 | 0.243 | 0.47 | 0.0438 | 0.522
SMPDL3B (sphingomyelin phosphodiesterase acid like 3B) | 0.156 | 0.714 | 0.379 | 0.0362 | 0.157
ATXN1 (ataxin 1) | 0.157 | 0.0595 | 0.275 | 0.019 | 0.335
OTUD3 (OTU deubiquitinase 3) | 0.118 | 0.0535 | 0.229 | 0.0124 | 0.137
PDGFA (platelet derived growth factor subunit A) | 0.181 | 0.9 | 0.698 | 0.0415 | 0.161
ORM1 (orosomucoid 1) | 0.149 | 0.206 | 0.278 | 0.058 | 0.258
TBX6 (T-box transcription factor 6) | 0.155 | 0.131 | 0.25 | 0.0107 | 0.151
SLC25A36 | 0.131 | 0.194 | 0.288 | 0.0565 | 0.207
MRPL28 (mitochondrial ribosomal protein L28) | 0.0594 | 0.185 | 0.303 | 0.0189 | 0.0701
VPS72 (vacuolar protein sorting 72 homolog) | 0.0863 | 0.163 | 0.479 | 0.0193 | 0.17
